Our source for the binding values is paper doi:10.1101/237610.

By UniProt entry, the sequences of proteins in these tests, tags left out.
UniProt P60842: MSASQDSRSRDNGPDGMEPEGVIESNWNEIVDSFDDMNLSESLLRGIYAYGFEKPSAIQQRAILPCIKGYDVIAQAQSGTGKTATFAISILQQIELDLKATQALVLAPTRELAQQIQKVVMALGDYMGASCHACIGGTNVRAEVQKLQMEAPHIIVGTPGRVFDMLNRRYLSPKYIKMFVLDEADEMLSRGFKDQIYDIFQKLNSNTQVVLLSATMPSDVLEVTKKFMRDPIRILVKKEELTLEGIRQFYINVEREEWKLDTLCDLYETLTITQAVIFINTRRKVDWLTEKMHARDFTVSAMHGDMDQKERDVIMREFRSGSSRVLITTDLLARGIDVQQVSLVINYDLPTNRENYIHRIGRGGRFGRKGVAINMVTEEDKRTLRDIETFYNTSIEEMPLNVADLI

No constants are given. Whether binding was seen depends on the method and setting. In cells and extracts the contact can be indirect. Some binding calls cover weakened binding; strength is not graded here. For some assays here: Sequences can lack the tags named with a protein.

The target of experiment [1] is FLAG-eIF4A1 (human) (UniProt P60842). The experiment is described as follows: co-IP.
Experiment [2] concerns the target FLAG-eIF4A1 (human), P60842. The experiment is described as follows: co-IP. As to conditions: remark: other sources report otherwise.

B1: DAP5 (endogenous) (protein, UniProt P78344 1-907)
chain: MESAIAEGGASRFSASSGGGGSRGAPQHYPKTAGNSEFLGKTPGQNAQKWIPARSTRRDDNSAANNSANEKERHDAIFRKVRGILNKLTPEKFDKLCLELLNVGVESKLILKGVILLIVDKALEEPKYSSLYAQLCLRLAEDAPNFDGPAAEGQPGQKQSTTFRRLLISKLQDEFENRTRNVDVYDKRENPLLPEEEEQRAIAKIKMLGNIKFIGELGKLDLIHESILHKCIKTLLEKKKRVQLKDMGEDLECLCQIMRTVGPRLDHERAKSLMDQYFARMCSLMLSKELPARIRFLLQDTVELREHHWVPRKAFLDNGPKTINQIRQDAVKDLGVFIPAPMAQGMRSDFFLEGPFMPPRMKMDRDPLGGLADMFGQMPGSGIGTGPGVIQDRFSPTMGRHRSNQLFNGHGGHIMPPTQSQFGEMGGKFMKSQGLSQLYHNQSQGLLSQLQGQSKDMPPRFSKKGQLNADEISLRPAQSFLMNKNQVPKLQPQITMIPPSAQPPRTQTPPLGQTPQLGLKTNPPLIQEKPAKTSKKPPPSKEELLKLTETVVTEYLNSGNANEAVNGVREMRAPKHFLPEMLSKVIILSLDRSDEDKEKASSLISLLKQEGIATSDNFMQAFLNVLDQCPKLEVDIPLVKSYLAQFAARAIISELVSISELAQPLESGTHFPLFLLCLQQLAKLQDREWLTELFQQSKVNMQKMLPEIDQNKDRMLEILEGKGLSFLFPLLKLEKELLKQIKLDPSPQTIYKWIKDNISPKLHVDKGFVNILMTSFLQYISSEVNPPSDETDSSSAPSKEQLEQEKQLLLSFKPVMQKFLHDHVDLQVSALYALQVHCYNSNFPKGMLLRFFVHFYDMEIIEEEAFLAWKEDITQEFPGKGKALFQVNQWLTWLETAEEEESEEEAD
Regarding B1, the binding entry in experiment [1] is reported as “binds”.

B2: GFP-PAIP1, Q9H074 1-479 (protein)
chain: MSDGFDRAPGAGRGRSRGLGRGGGGPEGGGFPNGAGPAERARHQPPQPKAPGFLQPPPLRQPRTTPPPGAQCEVPASPQRPSRPGALPEQTRPLRAPPSSQDKIPQQNSESAMAKPQVVVAPVLMSKLSVNAPEFYPSGYSSSYTESYEDGCEDYPTLSEYVQDFLNHLTEQPGSFETEIEQFAETLNGCVTTDDALQELVELIYQQATSIPNFSYMGARLCNYLSHHLTISPQSGNFRQLLLQRCRTEYEVKDQAAKGDEVTRKRFHAFVLFLGELYLNLEIKGTNGQVTRADILQVGLRELLNALFSNPMDDNLICAVKLLKLTGSVLEDAWKEKGKMDMEEIIQRIENVVLDANCSRDVKQMLLKLVELRSSNWGRVHATSTYREATPENDPNYFMNEPTFYTSDGVPFTAADPDYQEKYQELLEREDFFPDYEENGTDLSGAGDPYLDDIDDEMDPEIEEAYEKFCLESERKRKQ
For B2, in experiment [2], the binding result is “binds”.
